The whole screen tested about 410,000 compounds, of which about 18,000 (4.4%) were called active. The inconclusive results got no clear call from the source; some entries with a clear call stand among them for comparison. No stated cut-off is given here; in the data, active means activity change below about -60%; inconclusive means no clear call, values can overlap the other calls; inactive means above about -39%.
Experiment: qHTS Assay for inhibitors of the human cytomegalovirus (HCMV)
Conditions: HFF cells, HCMV-luciferase reporter, 72 h; at 57.5 µM; stronger effect = lower value
Method in brief: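 After 16 h attachment at 37C, HFF cells received test compound and HCMV-luciferase (1 PFU/cell); reporter luminescence read 72 h later, data normalized against buffer-only and known inhibitor Salinomycin.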
On the % scale 0 is the no-effect control and ±100 the full control effect.

Compound	activity change, negative = inhibition
CN(C)c1ccc(/C=N/NC2=NS(=O)(=O)c3ccccc32)cc1	inconclusive: -41.8%
CN1C(=O)Cc2cc(S(=O)(=O)NCc3ccccc3Cl)ccc21	inconclusive: 0%
Cc1nc2ccc(NS(=O)(=O)c3c(F)cc(F)cc3Br)cc2s1	inconclusive: -58.4%
CCOC(=O)c1c(NC(=O)CSc2nc3nc(C)cc(C)n3n2)sc(CC)c1C	inconclusive: -46.7%
Cc1ccc(NC(=O)CN2CCCCC2)c2c1CC(C)(C)O2	active: -63%
CCOC(=O)N1CCN(C(=O)CCc2c(C)nc3c(c(C)nn3-c3ccc(C)c(C)c3)c2C)CC1	inactive: -25.3%
CCc1cccc(NC(=O)C2CCCN2S(=O)(=O)c2ccc3nc(-c4ccccc4)[nH]c3c2)c1 (stereo unspecified)	active: -60.3%
COc1ccc2c(c1)-c1c(sn(-c3ccccc3)c1=S)C(C)(C)N2	inconclusive: -52.9%
COC(=O)c1cc(-c2c(C)oc3cc(O)ccc3c2=O)c(C)o1	inconclusive: -42.8%
Cc1ccc(-c2nnc(N3CCCCCC3)c3ccccc23)cc1	inconclusive: -48.9%
CCCNC(=O)c1ccc2c(c1)ncn2-c1cc(C)cc(C)c1	inconclusive: -55.3%
Cc1ccc(-n2[nH]c(C)c(C=NCc3ccncc3)c2=O)cc1	inconclusive: 0%
CC(C)COc1cc(=O)[nH]c(SCC(C)C)n1	inconclusive: -45.3%
CCN(CC)CCOc1nnc(-c2ccc(OC)cc2)c2ccccc12	active: -71.9%
CN(CCc1ccccc1)Cc1c[nH]c2ccccc12	active: -98.6%
CC/C(C)=N/Nc1nc2c(c(=O)[nH]c(=O)n2C)n1CCc1ccccc1	inconclusive: -56%
CCC(=O)Nc1ccc(Cl)c(Cl)c1	inconclusive: -46.4%
CCOc1ncccc1C(=O)Nc1ccc(Cl)cc1	inactive: 82.3%
COc1ccc(C2=CC(c3c(C)nn(-c4ccccc4)c3Cl)n3nnnc3N2)cc1OC (stereo unspecified)	inconclusive: -42.7%
Cc1csc(=N)n1-c1ccc(Cl)cc1	inconclusive: -49.2%
CC(C)C(=O)NC(c1cccc([N+](=O)[O-])c1)c1c(O)ccc2ccccc12 (stereo unspecified)	inactive: 3.32%
COc1ccc(C)cc1NC(=O)c1nnn(CC(=O)Nc2c(C)cccc2C)c1N	inactive: -16.5%

Compound	activity change, negative = inhibition
O=C(CCc1ccccc1)NCCc1cccs1	inconclusive: -57.4%
COc1ccc2c(c1)C(=O)N1[C@H]3c4cc(Cl)ccc4OC[C@@H]3[C@H](c3ccccc3)[C@]1(C)C(=O)N2	active: -60.4%
CC(C)COc1cccc(C(=O)Nc2ccc(N3CCOCC3)cc2N2CCOCC2)c1	inconclusive: -48.2%
COc1ccccc1N1CCN(C(=O)CSc2ncccc2-c2nc3ccccc3[nH]2)CC1	inconclusive: -59.2%
Cc1ccc(NC(=S)N/N=C/c2c(C)[nH]c3ccccc23)cc1	inconclusive: -53.8%
CCOC(=O)C(Cc1ccc(OC)c([N+](=O)[O-])c1)NC(=O)CCC(=O)Nc1ccc(OC)cc1 (stereo unspecified)	active: -105%
CCOc1ncccc1C(=O)Nc1cc(C(F)(F)F)ccc1N1CCOCC1	active: -67.2%
COc1ccc(C(=O)Nc2ccc(Cl)cc2F)cc1S(=O)(=O)N1CCCC1	inconclusive: -54.5%
C/C(=N\NC(=O)C1COc2ccccc2O1)c1cc2ccccc2o1 (stereo unspecified)	inconclusive: -43%
COc1ccc(CN2CCN(C(=O)CN3C(=O)C4C5C=CC(C5)C4C3=O)CC2)c(OC)c1OC (stereo unspecified)	inconclusive: -46.9%
O=C1OC(Cc2ccccn2)C(=O)C1=C1SCCS1 (stereo unspecified)	inconclusive: -47.1%
Cc1nc(S(=O)(=O)N2CCN(c3cccc(Cl)c3)CC2)cn1C	inactive: -7.32%
O=C(c1ccsc1)N1CCCC(N2CCN(c3cccc(C(F)(F)F)c3)CC2)C1 (stereo unspecified)	inactive: 0.805%
O=C(COc1ccc(Cl)cc1Cl)NN=C1c2ccccc2-c2ccccc21	active: -61.3%
CC(C)Cn1c(CN2CCN(c3cccc(Cl)c3)CC2)nc2c1c(=O)[nH]c(=O)n2C	inconclusive: -51.8%
CC(NCc1cc(Br)ccc1OCC(N)=O)C12CC3CC(CC(C3)C1)C2 (stereo unspecified)	inconclusive: -57.8%
COc1ccc(C(=O)N(C)C2CCCN(Cc3ccccc3F)C2)cc1OC (stereo unspecified)	inactive: 7.82%
COc1ccccc1N=c1oc2cc(O)ccc2cc1C(=O)NCC1CCCO1 (stereo unspecified)	inactive: -16%
CCOC(=O)c1c(NC(=S)N2CCCCC2)sc2c1CCN(C(=O)OCC)C2	active: -97.6%
Cc1cccc2nc(-c3ccco3)c(Nc3ccc4c(c3)OCCO4)n12	inactive: -17.6%
CC(NC(N)=O)C(=O)Nc1ccc(Cl)c(S(=O)(=O)Nc2ccc(Cl)cc2)c1 (stereo unspecified)	inactive: -5.04%
O=S(=O)(c1c(Cl)cc(Br)cc1Cl)N1CCN(C(=S)NC2CC2)CC1	inconclusive: -57.1%

Compound	activity change, negative = inhibition
C=CCNC(=S)NNC(=O)C(CCC(C)C)CC(C)(C)O (stereo unspecified)	active: -107%
CN1CCN(C(=S)NC(=O)c2ccc(-c3ccccc3)cc2)CC1	inconclusive: -41%
Cc1ccc(S(=O)(=O)N2C[C@@H](C)[C@]3(C2)[C@H](O)[C@H](OC(=O)Nc2cccs2)C[C@H]2C(=O)N(c4ccccc4)C(=O)[C@H]23)cc1	active: -104%
Cc1noc(NS(=O)(=O)c2ccc(NC(=O)c3nn(-c4ccc(F)cc4)ccc3=O)cc2)c1C	inconclusive: -54.5%
CC1=Nc2ccccc2/C1=C/c1nc(-c2ccc(C)s2)oc1O	inactive: 20.8%
CN(C)CC(=O)N1c2ccccc2CCc2ccc(NC(=O)c3ccc(N)cc3)cc21	inconclusive: -51.5%
CCOC(=O)Cc1csc(Nc2ccc(Cl)cc2)n1	active: -72.3%
Cc1nn(Cc2ccc(Cl)cc2Cl)c(Cl)c1/C=C/C(=O)OCC(=O)NCC(F)(F)F	inconclusive: -48.2%
Cc1n[nH]c(C)c1S(=O)(=O)N1CCCC(C(=O)N2CCN(c3ccc(Cl)cc3)CC2)C1 (stereo unspecified)	active: -75.6%
COc1ccc(N(CC(=O)Nc2ccc(C)c(F)c2)S(=O)(=O)c2c(C)noc2C)cc1	inactive: 49.9%
Cc1ccc(N(C(=O)c2csnn2)C(C(=O)NC2CCCCC2)c2ccccn2)cc1C (stereo unspecified)	inconclusive: -44.2%
COc1ccc(N2Cc3ccccc3C2=NC(=O)c2cncc(Br)c2)cc1	active: -81.4%
CCOC(=O)N1CCN(CCC(=O)c2ccc(OC)cc2)CC1	inactive: -18.3%
O=C(Nc1ccnc(-c2cccnc2)n1)c1cccc(Cl)c1Cl	inconclusive: -52.9%
Cc1cc(N2CCN(C(=O)c3ccco3)CC2)n2nc(-c3cccc(F)c3)cc2n1	active: -63.1%
Cc1c(Cl)cccc1NC(=O)Cn1c(=O)cc(C)c2c(C)nn(-c3cccc(F)c3)c21	inactive: -5.7%
O=C1NCCNC(=O)c2ccccc2OCCOc2ccccc21	inconclusive: -48.4%
Cc1occc1C(=O)Nc1ccccc1NC(=O)c1ccoc1C	inactive: 30.7%
Cc1noc(C)c1COc1ccccc1C(=O)N(C)Cc1ccc(C(C)(C)C)cc1	inconclusive: -50.7%
CN(CC(=O)Nc1ccc(N2CCOCC2)cc1)CC(=O)Nc1ccc(C(F)(F)F)cc1	inconclusive: -48.1%
CC(C)(CC1(C)NC(=O)NC1=O)OCc1ccccc1 (stereo unspecified)	inconclusive: -57.3%
Cc1ccc(C)c(NC(=O)COC(=O)CNC(=O)c2ccccc2Cl)c1	inconclusive: -48%

Compound	activity change, negative = inhibition
COc1cc(NC(=O)c2ccc(-c3nc(CSc4ccccc4)c(C)o3)cc2)cc(OC)c1	inconclusive: -56%
CCN(CC)S(=O)(=O)c1ccc(Cl)c(NC(=O)c2ccc(C#N)cc2)c1	inconclusive: -50.9%
O=C(CCNS(=O)(=O)c1ccc(Br)cc1)NCc1ccc(F)cc1	inconclusive: -58.2%
COc1cc(OC)cc(C(=O)Nc2ccc3nc4n(c(=O)c3c2)CCCC4)c1	inconclusive: -54.9%
CCCCc1nnc(NC(=O)c2ccc(OCc3c(C)noc3C)cc2)s1	inconclusive: -53.6%
CC1CCN(S(=O)(=O)c2ccc3ncn(CC(=O)N4CCN(C)CC4)c(=O)c3c2)CC1	inconclusive: -48.3%
CCc1nc2ccccc2c(C(=O)OCC(=O)N(CCOC)c2c(N)n(Cc3ccccc3)c(=O)[nH]c2=O)c1C	inconclusive: -51.7%
CC1(C(=O)NC2CCCCCCC2)CCC(=O)N1Cc1cccnc1 (stereo unspecified)	inconclusive: -45.3%
Cc1ccc(-c2nnc(NC(=O)c3ccc([N+](=O)[O-])o3)o2)c(C)c1	inconclusive: -42.6%
Cc1ccc2c(c1)C1CN(C)CCC1N2C(=O)c1cccnc1Cl (stereo unspecified)	inactive: 12.4%
Cc1ccc(S(=O)(=O)N2CCOCC2)cc1C(=O)Nc1ccc(N2CCCCCC2)cc1	active: -64.4%
COc1cccc(C(C)(O)c2nc(-c3ccc(OC)nc3)cs2)c1 (stereo unspecified)	active: -61.7%
Cc1c(CCC(=O)NCCCC(=O)O)c(=O)oc2cc3oc4c(c3cc12)CCCC4	inconclusive: -59.6%
Cc1ccc(C)c(C(=O)n2cnnc2N)c1	inconclusive: -47.6%
COc1ccc(S(=O)(=O)N2CCN(C(=O)CCOc3ccccc3)CC2)cc1OC	inactive: 0%
CC1CC(C)CN(C(=O)/C(=C\c2ccccc2)c2ccccc2)C1 (stereo unspecified)	inconclusive: -46.2%
c1coc(CNc2ncnc3ccccc23)c1	active: -64.6%
CC(C)(C)OC(=O)N1CCC(NC(=O)c2[nH]cnc2C(=O)Nc2ccc(Cl)cc2)CC1	inconclusive: -40%
Cc1ccc(NC(=O)c2ccc(C(C)(C)C)cc2)cc1[N+](=O)[O-]	inconclusive: -55.4%
COC(=O)c1ccc(NC(=O)CSc2ccc(-c3sc(-c4ccccc4)nc3C)nn2)cc1	inconclusive: -44.9%

Some of the entries above in a different format.

| Compound | activity change, negative = inhibition |
| --- | --- |
| CN(CCc1ccccc1)Cc1c[nH]c2ccccc12 | active: -98.6% |
| CCOC(=O)C(Cc1ccc(OC)c([N+](=O)[O-])c1)NC(=O)CCC(=O)Nc1ccc(OC)cc1 (stereo unspecified) | active: -105% |
| Cc1noc(C)c1COc1ccccc1C(=O)N(C)Cc1ccc(C(C)(C)C)cc1 | inconclusive: -50.7% |
| CC(C)(CC1(C)NC(=O)NC1=O)OCc1ccccc1 (stereo unspecified) | inconclusive: -57.3% |
| COc1cc(OC)cc(C(=O)Nc2ccc3nc4n(c(=O)c3c2)CCCC4)c1 | inconclusive: -54.9% |

— PubChem BioAssay AID1259415 (National Center for Advancing Translational Sciences (NCATS), 2018)
